Values quoted from earlier work in patent publication US20190070128A1, “USE OF CANNABIDIVARIN IN THE TREATMENT OF AUTISM SPECTRUM DISORDER, ASSOCIATED DISORDERS AND SCHIZOPHRENIA” (GW Research Limited, priority 2016, published 2019).
At least one structure is not confirmed: it was looked up by name or label, or the drawing left a doubt.

Test system: PCP-treated rats
Details: rat, in vivo; cited from earlier work

## CN1CCN(C2=Nc3cc(Cl)ccc3Nc3ccccc32)CC1 [clozapine]
  PCP-induced deficit in the novel object recognition test: attenuate
